Target: ATXN1-S776 phosphorylation
Test: In vitro mouse cerebellar extract kinase assay
Format: biochemical
Details: panel of six kinase inhibitors, Figure S1B

For `CN[C@@H]1C[C@H]2O[C@@](C)([C@@H]1OC)n1c3ccccc3c3c4c(c5c6ccccc6n2c5c31)C(=O)NC4` [Staurosporine], which “IC50 for inhibition of GST-ATXN1[30Q]-S776 phosphorylation (range in words)” value is on record?
Its value is “low nanomolar range”.

From publication PMC6028938 (Neurobiology of disease, 2018)
